Test results taken from PubChem BioAssay (NCATS).
Where “and” joins values, the source holds several entries; their conditions need not be identical. Equal entries are not always repeated. Some of the results follow.

assay: qHTS assay for small molecule antagonists of peroxisome proliferator-activated receptor delta signaling (AID 588535); details: HEK293T PPARd-UAS-bla, beta-lactamase FRET ratio, 18 h; 460 nm channel;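 also: cells co-treated with a PPAR-delta agonist as stimulator during compound exposure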

| Structure (SMILES) | max response |
| --- | --- |
| O=[N+]([O-])c1ccccc1[N+](=O)[O-] | -33.9% |
| CCOP(=O)(Cl)Cl | 14% and -34.7% |
| ClCCOP(OCCCl)OCCCl | 4.92% |

assay: qHTS assay for small molecule antagonists of retinoid X receptor alpha signaling (AID 588546); details: HEK293T RXRa-UAS-bla, beta-lactamase ratio, antagonist mode; measured here: W530 green channel, cytotoxicity proxy;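 also: cells stimulated with 9-cis-retinoic acid as agonist; % is scaled to controls: 0 for no effect and ±100 for the full control effect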
Source text: NIH Chemical Genomics Center [NCGC] U.S. Environmental Protection Agency [EPA] National Institutes of Environmental Health Sciences [NIEHS] National Toxicology Program [NTP] NCGC Assay Overview The Retinoid X receptor (RXR), a nuclear hormone receptor is expressed in liver, spleen, placenta, epidermis, central nervous system. These receptors are able to form homo and heterodimers with other nuclear receptors and due to this heterodimerizing ability, RXR functions as master regulators producing diverse physiological effects. Three subtypes of RXR exist; alpha, beta and gamma. Retinoid X receptor alpha (RXR-alpha) has potential roles in metabolic signaling pathways, skin alopecia, dermal cysts, cardiac development, insulin sensitization etc. Therefore screening environmental chemicals on RXR-alpha signaling can be used for the studies focused on such therapeutic applications.
NCGC Assay Protocol Summary Using a beta-lactamase reporter-gene under control of Retinoid X receptor--alpha (RXR-alpha) response element, a cell-based assay [GeneBLAzer (RXR-alpha -UAS-bla assay developed by Invitrogen] was used to measure RXR-alpha ligands signaling. GeneBLAzer RXR-alpha -UAS-bla HEK293T cells were used with assay medium containing 2% charcoal-stripped FBS. The assay was performed in clear bottom black Greiner 1536-well plates. Library compounds were measured for their ability to inhibit the reporter gene activity. Compounds were screened in a titration series in 1536-well format. The fluorescence intensity (405 nm excitation, 460/530 nm emission) was measured using an EnVision plate reader. Data was normalized relative to 9-cis-retinoic acid control (500 nM, 100%), and DMSO only wells (basal, 0%). Concentration-response titration points for each compound were fitted to the Hill equation yielding concentrations of half-maximal inhibition (IC50) and maximal response (efficacy) values. qHTS protocol for RXR-alpha beta-lactamase assay in antagonist mode [Step] [Parameter] [Value] [Description] 1. Reagent; 5 uL; 2500 cells/well 2. […] Detection; Fluorescence; Envision plate reader

| Structure (SMILES) | max response |
| --- | --- |
| O=[N+]([O-])c1ccccc1[N+](=O)[O-] | 1.9% |
| CCOP(=O)(Cl)Cl | -5.19% |
| ClCCOP(OCCCl)OCCCl | -2.98% |
